Measurements taken from PMC7466560.
No constants are given. Whether binding was seen depends on the method and setting. Binding seen in cells or lysates may run through a third protein. Some results given as binding are weak or reduced against the parent protein; the word gives no strength.

Chains of the proteins cited; added tags and fusions are not shown.
UniProt Q9NQB0: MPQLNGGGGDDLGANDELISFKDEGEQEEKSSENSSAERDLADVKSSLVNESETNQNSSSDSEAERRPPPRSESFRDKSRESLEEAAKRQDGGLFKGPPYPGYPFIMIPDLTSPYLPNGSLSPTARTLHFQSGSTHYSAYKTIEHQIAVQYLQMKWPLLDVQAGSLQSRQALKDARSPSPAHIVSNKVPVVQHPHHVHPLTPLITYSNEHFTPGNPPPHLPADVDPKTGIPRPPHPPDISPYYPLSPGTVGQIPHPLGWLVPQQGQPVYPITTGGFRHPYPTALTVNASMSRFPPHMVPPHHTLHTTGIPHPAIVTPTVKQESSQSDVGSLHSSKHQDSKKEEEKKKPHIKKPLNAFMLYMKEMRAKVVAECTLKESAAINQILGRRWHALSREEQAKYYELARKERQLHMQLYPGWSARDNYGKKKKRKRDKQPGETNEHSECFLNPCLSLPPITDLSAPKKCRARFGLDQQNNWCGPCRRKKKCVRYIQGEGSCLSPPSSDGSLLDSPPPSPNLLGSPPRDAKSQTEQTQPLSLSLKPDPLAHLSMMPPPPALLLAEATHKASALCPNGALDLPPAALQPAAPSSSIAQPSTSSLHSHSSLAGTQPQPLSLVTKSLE
UniProt Q15672: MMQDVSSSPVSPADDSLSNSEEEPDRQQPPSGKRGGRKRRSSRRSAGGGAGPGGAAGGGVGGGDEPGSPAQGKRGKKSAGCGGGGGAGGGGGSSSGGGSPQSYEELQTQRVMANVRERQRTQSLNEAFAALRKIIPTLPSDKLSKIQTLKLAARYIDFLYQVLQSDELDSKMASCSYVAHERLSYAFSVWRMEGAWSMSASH
UniProt P35222: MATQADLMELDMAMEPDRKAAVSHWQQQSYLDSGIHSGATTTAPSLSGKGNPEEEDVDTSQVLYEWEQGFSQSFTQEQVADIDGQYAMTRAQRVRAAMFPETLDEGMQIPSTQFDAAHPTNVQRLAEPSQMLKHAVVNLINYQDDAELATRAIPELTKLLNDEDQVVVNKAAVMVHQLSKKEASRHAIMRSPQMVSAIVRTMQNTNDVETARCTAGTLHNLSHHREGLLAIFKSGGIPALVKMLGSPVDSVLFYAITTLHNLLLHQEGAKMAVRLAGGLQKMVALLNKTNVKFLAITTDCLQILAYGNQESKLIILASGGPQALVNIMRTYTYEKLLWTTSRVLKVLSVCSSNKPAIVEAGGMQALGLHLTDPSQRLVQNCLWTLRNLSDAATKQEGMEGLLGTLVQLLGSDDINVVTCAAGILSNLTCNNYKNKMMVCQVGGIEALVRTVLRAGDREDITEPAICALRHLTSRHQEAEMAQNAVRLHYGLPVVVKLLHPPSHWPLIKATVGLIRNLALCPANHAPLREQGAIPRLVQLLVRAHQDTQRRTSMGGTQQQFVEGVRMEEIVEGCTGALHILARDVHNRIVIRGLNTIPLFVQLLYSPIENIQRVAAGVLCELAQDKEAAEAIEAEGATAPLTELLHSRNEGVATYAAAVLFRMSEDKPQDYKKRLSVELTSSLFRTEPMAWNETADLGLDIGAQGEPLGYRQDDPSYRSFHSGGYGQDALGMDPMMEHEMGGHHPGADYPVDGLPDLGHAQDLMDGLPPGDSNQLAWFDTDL

Tests used:
[1] = molecular target: Tcf4 (human (endogenous in primary dermal papilla cells)) (UniProt Q9NQB0); test: co-IP; lysate of cultured DPCs (RIPA buffer) incubated overnight with anti-Twist1, anti-Tcf4 or IgG (negative control); protein A/G agarose; eluate analysed by Western blot
[2] = molecular target: Twist1 (human (endogenous in primary dermal papilla cells)) (UniProt Q15672); test: as above

Row | binding [1] | binding [2] | Substance
1 | binds |  | Twist1 (from UniProt Q15672 1-202)
2 |  | binds | Tcf4 (from UniProt Q9NQB0 1-619)
3 |  | binds | β-catenin (from UniProt P35222 1-781)
